# In PubChem BioAssay AID2551 (National Center for Advancing Translational Sciences (NCATS), 2010):
# Amino acid sequences for entries named in this document (tags omitted). A change or cut given only in a name is not applied to a line headed by its entry.
# UniProt P51450: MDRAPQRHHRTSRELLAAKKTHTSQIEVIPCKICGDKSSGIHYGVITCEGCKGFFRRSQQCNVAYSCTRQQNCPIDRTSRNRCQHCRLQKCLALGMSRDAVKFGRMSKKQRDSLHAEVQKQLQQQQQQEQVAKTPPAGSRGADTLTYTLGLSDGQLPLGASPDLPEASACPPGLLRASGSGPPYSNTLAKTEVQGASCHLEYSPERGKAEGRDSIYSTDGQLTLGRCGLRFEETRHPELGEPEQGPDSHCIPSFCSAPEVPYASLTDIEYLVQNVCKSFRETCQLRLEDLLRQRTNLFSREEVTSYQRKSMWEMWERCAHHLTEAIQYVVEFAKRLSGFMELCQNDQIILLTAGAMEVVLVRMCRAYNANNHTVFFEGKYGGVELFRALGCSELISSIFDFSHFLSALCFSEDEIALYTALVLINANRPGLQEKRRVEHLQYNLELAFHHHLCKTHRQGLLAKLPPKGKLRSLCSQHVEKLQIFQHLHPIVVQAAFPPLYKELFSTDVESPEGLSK
# The whole screen tested about 310,000 compounds, of which about 17,000 (5.5%) were called active. This list was built around the results that the source calls inconclusive (neither active nor inactive); the mix of calls is not that of the screen. Calls follow the shape of the dose curve; as a rule, active = well fitted inhibition curve with a large enough effect; inconclusive = small, poorly fitted or top-dose-only effect, or effect the other way; inactive = no such curve, though single readings can be large or run the other way. A potency beside an inconclusive call is a rough fit, not a confirmed value.
# Biological target: Nuclear receptor ROR-gamma (Mus musculus) (UniProt P51450)
# Experiment: qHTS for inhibitors of ROR gamma transcriptional activity; also: nearly all actives have a fitted effect of over 60% in size
# Details: Drosophila S2 Gal4-RORgamma UAS-luciferase reporter, 20 h; activity change, negative = inhibition: at 53.6 µM (top of the series)
# Outline: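 Luminescence from a UAS-regulated Photinus luciferase reporter in stably transfected Drosophila Schneider cells is measured; decreased signal marks ROR gamma inhibition. Fusion expression is induced by 700 uM copper sulfate for 20 hr.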
# % is scaled to controls: 0 for no effect and ±100 for the full control effect; potency is read from the fitted curve at half-maximal effect.
Compound,"activity change, negative = inhibition",Potency
CCN1CCN(C(=S)Nc2ccc(Cl)cc2)CC1,inactive: -36.5%,
O=C(/C=C/c1ccc(Cl)cc1)NCCc1ccccc1,,"inconclusive: 10 µM [activator, partial curve]"
NC(=O)c1ccccc1NC(=O)c1ccccc1Cl,inactive: 9.36%,
O=[N+]([O-])c1ccc2c(c1)C(O)n1nc(-c3ccc(Cl)cc3Cl)nc1S2 (stereo not given),,active: 11.2 µM
O=C(CSc1ccc2ccccc2n1)N1CCC(c2noc3ccc(F)cc23)CC1,,"inconclusive: 20 µM [activator, single point]"
Cc1cc2ncc(S(=O)(=O)c3ccccc3)c(N)n2n1,,"inconclusive: 14.1 µM [inhibitor, single point]"
CCCCCCOc1ccc(C(=O)O)cc1C#N,inactive: 25.5%,
Clc1nccnc1-c1ccccc1,inactive: -9.43%,
O=C(Cn1ncc(Cl)c(Cl)c1=O)N1CCc2ccccc21,,"inconclusive: 35.5 µM [inhibitor, single point]"
COc1ccccc1N1CCN(S(=O)(=O)c2ccc(-n3cnnn3)c(C)c2)CC1,,"inconclusive: 35.5 µM [activator, single point]"
Cc1nc(C(F)(F)F)c(C(=O)N/N=C(\N)c2ccccn2)s1,,"inconclusive: 12.6 µM [inhibitor, single point]"
COc1ccc(OC)c(-c2cc(C3CCN(c4ncccc4[N+](=O)[O-])CC3)[nH]n2)c1,,"inconclusive: 5.01 µM [inhibitor, single point]"
O=C1/C(=N\S(=O)(=O)c2cccs2)C([n+]2ccc(CCCc3ccccc3)cc2)=C([O-])c2ccccc21,inactive: -18.9%,
COc1ccc(NC(=O)C23CC4CC(C2)CC(c2ccccc2)(C4)C3)c(OC)c1,,"inconclusive: 31.6 µM [activator, single point]"
FC(F)(F)c1cccc(NC(=S)Nc2cccc(NC(=S)Nc3cccc(C(F)(F)F)c3)n2)c1,,active: 5.01 µM
COc1ccc(C(=O)/C=C/C(=O)N(CC(=O)NCCC(C)C)Cc2cccs2)c(O)c1,,"inconclusive: 22.4 µM [inhibitor, single point]"
O[C@@](CCN1CCCC1)(c1ccccc1)C1CCCCC1,inactive: 9.6% [at 2.98 µM],
Cc1nc(-c2ccccc2)sc1C(=O)CSc1ccc(Br)cc1,,"inconclusive: 0.112 µM [activator, full curve]"
CC(C)Oc1ccc(/C=N/NC(=O)c2ccc(N(Cc3ccccc3)S(C)(=O)=O)cc2)cc1,,"inconclusive: 25.1 µM [inhibitor, single point]"
CC(=O)c1cccc(NC(=S)NC(=O)c2ccccc2)c1,,active: 8.91 µM
CCCCCOC(=O)NCCOC(=O)Nc1ccc(C(=O)OCC)cc1,inactive: 30.1%,
COc1ccccc1CNn1c(-c2cccc(C)c2)nc2ccccc2c1=O,,"inconclusive: 6.31 µM [inhibitor, single point]"
O=C(CNS(=O)(=O)c1ccc(Br)s1)NC1CCCc2ccccc21 (stereo not given),,"inconclusive: 35.5 µM [activator, single point]"

# Rewritten bar-delimited: 4 of the compounds above.
Compound | activity change, negative = inhibition | Potency
Cc1cc2ncc(S(=O)(=O)c3ccccc3)c(N)n2n1 |  | inconclusive: 14.1 µM [inhibitor, single point]
Clc1nccnc1-c1ccccc1 | inactive: -9.43% | 
COc1ccc(NC(=O)C23CC4CC(C2)CC(c2ccccc2)(C4)C3)c(OC)c1 |  | inconclusive: 31.6 µM [activator, single point]
COc1ccccc1CNn1c(-c2cccc(C)c2)nc2ccccc2c1=O |  | inconclusive: 6.31 µM [inhibitor, single point]

# Next part

Compound,"activity change, negative = inhibition",Potency
O=C(CN(Cc1ccco1)C(=O)CNS(=O)(=O)c1ccccc1)NCc1ccc(F)cc1,,"inconclusive: 11.2 µM [activator, partial curve, poor fit]"
COc1ccc(CNC(=O)CS(=O)Cc2nc(-c3ccc(C)cc3)oc2C)cc1 (stereo not given),,active: 12.6 µM
CCn1c(Cc2cccc3ccccc23)nnc1SCC(=O)Nc1nccs1,,active: 14.1 µM
Clc1nssc1=Nc1ccccc1,,"inconclusive: 7.94 µM [inhibitor, partial curve]"
Cc1c(Cl)cccc1Nc1nc(N)nc(CSCCO)n1,,"inconclusive: 1.26 µM [activator, partial curve, poor fit]"
Cc1ccc(C(=O)N/C(=C\c2ccc(-c3cc(Cl)ccc3Cl)o2)C(=O)NCc2cccnc2)cc1,,"inconclusive: 20 µM [activator, single point]"
O=C(CSCc1ccccc1)Nc1nccs1,,"inconclusive: 35.5 µM [inhibitor, single point]"
CCn1nnnc1SCC(=O)Nc1nc(-c2cccs2)cs1,,"inconclusive: 0.631 µM [activator, full curve, poor fit]"
CC(C)CN1CC2(CCN(C(=O)c3ccco3)CC2)C1,inactive: 22.3%,
CCOc1ccc(-c2nc(-c3cccnc3)no2)cc1OCC,,"inconclusive: 15.8 µM [activator, single point]"
COc1ccc(C(=O)COC(=O)/C=C/c2ccccc2)cc1,,"inconclusive: 3.16 µM [inhibitor, full curve, poor fit]"
O=C(Nc1nnc(C2=COCCO2)o1)c1cccc([N+](=O)[O-])c1,,active: 1 µM
CCOC(=O)c1c(C)[nH]c(C(=O)CN2C(=O)NC(CC)(c3ccccc3)C2=O)c1C (stereo not given),inactive: 14.9%,
COc1ccc(-c2noc(CCC(=O)N3CCN(Cc4ccccc4)CC3)n2)cc1,,"inconclusive: 22.4 µM [inhibitor, single point]"
CN1CCN(c2ncc3nc(-c4cn(C)c5ccccc45)c(=O)n(-c4ccccc4)c3n2)CC1,,"inconclusive: 12.6 µM [inhibitor, single point]"
CCN=C1S/C(=C\c2cc(Br)c(O)c(OC)c2)C(=O)N1CC,,"inconclusive: 2.51 µM [activator, full curve]"
CC(c1ccco1)N(C(=O)COc1ccc(Cl)cc1Cl)c1ccccn1 (stereo not given),,"inconclusive: 25.1 µM [inhibitor, single point]"
COc1ccc(-c2nnn(CC(=O)N(Cc3cccs3)C(C)C(=O)NCCC(C)C)n2)cc1OC (stereo not given),inactive: 25%,
CCN(CC)S(=O)(=O)c1ccc(N/N=C(\C)c2ccncc2)nc1,,"inconclusive: 10 µM [inhibitor, partial curve, poor fit]"
O=C(c1c(F)cccc1F)N1CCN(c2cccc(C(F)(F)F)c2)CC1,,"inconclusive: 35.5 µM [inhibitor, single point]"
Cc1ccc(CNS(=O)(=O)c2c(N)n(C)c(=O)n(C)c2=O)cc1,inactive: -0.874%,
COc1cccc2c(SCC(=O)N/N=C/c3ccc(O)cc3O)cc(C)nc12,,"inconclusive: 17.8 µM [inhibitor, single point]"
